Source: patent US20250154256A1 (AUGUSTA UNIVERSITY RESEARCH INSTITUTE, published 2025)
No constants are given. Whether binding was seen depends on the method and setting. Some entries that bind do so weakly or less than the wild type. One block for each binder: values may come before it.

Protein sequences, listed by entry. Tags and fused reporters are not part of them. Lines headed by an entry give the natural chain unless they say otherwise; changes in a name come on top.
UniProt Q15116: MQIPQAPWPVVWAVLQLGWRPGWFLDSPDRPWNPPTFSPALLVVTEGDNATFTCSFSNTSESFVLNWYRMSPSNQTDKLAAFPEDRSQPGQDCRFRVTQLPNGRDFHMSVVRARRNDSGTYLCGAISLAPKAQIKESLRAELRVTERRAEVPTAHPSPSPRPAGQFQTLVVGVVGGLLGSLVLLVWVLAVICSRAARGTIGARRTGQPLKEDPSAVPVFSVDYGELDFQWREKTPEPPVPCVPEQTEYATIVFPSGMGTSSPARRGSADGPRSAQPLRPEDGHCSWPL

Tests used:
human PD-1-Fc [1] = biological target: T1, human PD-1-Fc (human, UniProt Q15116 25-170, limits assumed); assay: ELISA on human PD-1-Fc (FIG. 10)
T1 construct: ELISA antigen

[2] = biological target: mouse PD-1 expressed on cells (murine EL4 cells; CD4 T cells from wild-type mice) (mouse) (UniProt Q02242); assay: flow cytometry on CD4 T cells from WT mice; CD4 T cells from PD-1 KO mice (FIG. 11A) as specificity control
[3] = biological target: mouse PD-1 expressed on cells (murine EL4 cells; CD4 T cells from wild-type mice) (mouse) (UniProt Q02242); assay: flow cytometry on EL4 cells, MFI bar graph, purified antibody at 0.5 ug and 2 ug
human PD-1-Fc [4] = biological target: T1, human PD-1-Fc; assay: ELISA, binding to human PD-1-Fc
[5] = biological target: mouse PD-1 expressed on cells (murine EL4 cells; CD4 T cells from wild-type mice) (mouse) (UniProt Q02242); assay: flow cytometry on mouse CD4 T cells, PD-1 KO cells as negative control (FIG. 11A, 11B)
[6] = biological target: mouse PD-1 expressed on cells (murine EL4 cells; CD4 T cells from wild-type mice) (mouse) (UniProt Q02242); assay: flow cytometry on murine EL4 cells that constitutively express PD-1, PE-labelled secondary detection
[7] = biological target: mouse PD-1 expressed on cells (murine EL4 cells; CD4 T cells from wild-type mice) (mouse) (UniProt Q02242); assay: flow cytometry on EL4 cells (FIG. 6D)
mouse PD-1 [8] = biological target: T2, mouse PD-1 (mouse, UniProt Q02242 25-167, limits assumed); assay: SPR (Biacore), antibody as immobilised ligand, mouse PD-1 as analyte at 0, 62.5, 125, 250, 500, 500 and 1000 nM according to the legend; traces not labelled
T2 construct: Analyte in solution in the Biacore runs
T2 sequence: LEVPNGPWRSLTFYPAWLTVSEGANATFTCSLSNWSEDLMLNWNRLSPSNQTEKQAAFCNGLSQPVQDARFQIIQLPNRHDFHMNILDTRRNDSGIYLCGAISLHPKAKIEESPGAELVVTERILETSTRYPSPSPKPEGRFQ

[9] = biological target: mouse PD-1 expressed on cells (murine EL4 cells; CD4 T cells from wild-type mice) (mouse) (UniProt Q02242); assay: flow cytometry on EL4 cells (FIG. 6B)
mouse PD-1 [10] = biological target: T2, mouse PD-1; assay: SPR (Biacore), antibody as immobilised ligand, mouse PD-1 as analyte at 0, 62.5, 125, 500, 500 and 1000 nM according to the legend; traces not labelled
human PD-1 = biological target: T3, human PD-1 (human, UniProt Q15116 25-167, limits assumed); assay: SPR (Biacore), antibody as immobilised ligand, human PD-1 as analyte at 0, 125, 250, 500, 500 and 1000 nM according to the legend; traces not labelled
T3 construct: Analyte in solution in the Biacore runs; also called programmed cell death protein 1

binding (human PD-1-Fc [1]): binds
binding [2]: binds
binding [3]: binds
binding (human PD-1-Fc [4]): binds
binding [5]: binds
binding [6]: binds
binding [7]: binds
binding (mouse PD-1 [8]): binds
binding [9]: binds
B1: monoclonal antibody 5C2 (antibody, IgG1, V domains shown)
VH: QVQLQQPGAELVKPGASVKVSCKASGYTFTSYWMHWVKQRPGQGLEWIGRIHPSDSDTNYNQKFKGKATLTVDKSSSTAYMQLSSLTSEDSAVYYCAPYGNYASGFAYWGQGTLVTVSA
VL: DIVMTQSHKFMSTSVGDRVSITCKASQDVSTAVAWYQQKPGQSPKLLIYWASTRHTGVPDRFTGSGSGTDYTLTISSVQAEDLALYYCQQHYSTPWTFGGGTKLEIKR
notes: the two clones are reported with different SPR values; also called 5C2 anti-PD-1 antibody

binding (mouse PD-1 [10]): binds
binding (human PD-1): binds
B2: monoclonal antibody 4G9 (antibody, mouse IgG2b, kappa, V domains shown)
VH: QIQLVQSGPELKKPGETVKISCKASGYTFTTYGMTWVKQAPGKGLKWMGWINTYSGVPTYADDFKGRFAFSLETSASTAYLQINNLKNEDTATYFCARGGRGFAYWGQGTLVTVSA
VL: DILLTQSPAILSVSPGERVSFSCRASQSIGTSIHWYQQRTNGSPRLLIKYASESISGIPSRFSGSGSGTDFTLSINSVESEDIADYYCQQSNSWPYTFGGGTKLEIKR
notes: also called 4G9 anti-PD-1 antibody
